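Uptake of anthrax lethal toxin into cultured cells, read by FRET (460/530 nm ratio) and reported from the 460 nm channel; the cell line is not named here. Each compound was tested as a concentration series from about 0.0005 to 40 µM. The number is the fitted AC50 of the 460 nm signal alone; lower values mean a more potent effect. A falling signal goes with compounds filed as inhibitors or cytotoxic, a rising one with activators or fluorescent compounds (inferred from the filed classes).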

Values are in µM. Common to all entries: measured here: 460 nm channel. This is a side read-out of the assay, for part of the compounds, not drawn at random. A potency from a partial, single-point or poor curve is only a rough figure. The first word of each remark tells which way the curve ran; it can be opposite to the aim of the assay.

Result for CCCC(=O)N1CCN(c2ccc(NC(=O)c3ccccc3)cc2)CC1 was AC50 31.62 µM (rising, single point). Result for Cc1ccc(-c2csc(NC(=O)CSc3ncn(-c4ccccc4)n3)n2)cc1 was AC50 0.003162 µM (falling, full curve, poor fit). N#C/C(=C\c1ccc(O)c(O)c1)C(N)=S read AC50 25.12 µM (falling, partial curve). Result for COc1ccccc1CNc1ncnc2nc[nH]c12 was AC50 0.03162 µM (rising, single point). CCN1C(=O)/C(=C\N2CCN(C)CC2)SC1=S read AC50 3.162 µM (falling, full curve, poor fit). For COc1ccc(C(Cl)=C(c2ccc(OC)cc2)c2ccc(OC)cc2)cc1 the result was AC50 12.59 µM (falling, partial curve). COc1cccc(-c2ccc3ncnc(Nc4ccccc4)c3c2)c1 read AC50 10 µM (falling, single point).

Cc1ccnc(NC(=O)C2CCC(CNc3c(N4CCCC4)c(=O)c3=O)CC2)c1 (configuration not stated) gave AC50 7.943 µM (rising, partial curve, poor fit). Result for Cn1cccc1C(=O)N1CCC[C@@]2(CCN(Cc3ccc(C#N)cc3)C2)C1 was AC50 5.012 µM (rising, partial curve). O=S(=O)(c1ccccc1)N1CCC[C@@]2(CCN(c3ccccc3)C2)C1 gave AC50 3.981 µM (rising, partial curve). COc1ccc(-c2nnc(SCc3ncc(-c4ccccc4)o3)o2)cc1 gave AC50 10 µM (rising, partial curve). COC(=O)C1=C(C)NC(C)=C(C(=O)OCCCN2CCC(c3ccccc3)(c3ccccc3)CC2)[C@H]1c1cccc([N+](=O)[O-])c1 read AC50 31.62 µM (falling, single point). COc1ccc(N2CCN(C(=O)C3CCCN(S(=O)(=O)c4cccc5cccnc45)C3)CC2)cc1 (configuration not stated) gave AC50 31.62 µM (falling, partial curve). Result for CCNc1ncc2nc(-c3ccc(F)cc3)c(=O)n(CCOC)c2n1 was AC50 3.981 µM (rising, partial curve).

For Cc1ccc(-n2c3c(cc(C(=O)NC4CCSC4=O)c2=O)C(=O)CC(C)(C)C3)cc1 (configuration not stated) the result was AC50 6.31 µM (rising, partial curve). Result for O=C(Nc1nc(-c2ccc(Cl)s2)cs1)c1cccs1 was AC50 31.62 µM (falling, single point). C=C(C)COc1ccc(-c2n[nH]c(C)c2Oc2ccccc2OC)c(O)c1 read AC50 12.59 µM (falling, partial curve). With COc1cc2ncnc(Nc3cccc(Br)c3)c2cc1OC the assay gave AC50 25.12 µM (falling, partial curve). O=C(Nc1cccc(-c2nc3ccccc3[nH]2)c1)c1cccc(NC(=O)c2ccco2)c1 read AC50 12.59 µM (falling, partial curve). CC(C)c1nc(SCC(=O)N2CCN(c3ccccc3)CC2)c2c(=O)n(C)c(=O)n(C)c2n1 read AC50 15.85 µM (falling, partial curve, poor fit). O=C(NCCCN1CCOCC1)c1ccccc1-c1ccccc1 read AC50 1.995 µM (falling, partial curve).

CCCc1nc2ccccc2c(=O)n1/N=C/c1ccc(O)c(O)c1 read AC50 1.585 µM (falling, partial curve). For N#Cc1nc(-c2ccc(OCc3ccccc3)cc2)oc1N1CCC(C(N)=O)CC1 the result was AC50 15.85 µM (rising, single point).

Once more, the final 2:

{"structure": "CCCc1nc2ccccc2c(=O)n1/N=C/c1ccc(O)c(O)c1", "AC50 (µM)": "1.585", "remark": "falling, partial curve"}
{"structure": "N#Cc1nc(-c2ccc(OCc3ccccc3)cc2)oc1N1CCC(C(N)=O)CC1", "AC50 (µM)": "15.85", "remark": "rising, single point"}

From PubChem BioAssay record AID912 (NCATS, 2007).